In brackets after ≈: the same amount, converted by molar mass. This continues a long series; more values of the same kind are listed elsewhere.
Tested on: Escherichia coli
Test: minimum inhibitory concentration (MIC)
Method: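 Broth microdilution MIC (Sensititre BOPO7F bovine plate, CLSI methods) of 19 antimicrobials against field isolates of P. multocida, M. haemolytica, H. somni (deep nasopharyngeal swabs) and E. coli, Enterococcus spp. (rectal swabs) from weaned dairy heifers. Incubation 16-24 h at 35 C. MIC is the lowest concentration preventing visible growth. Values with <= or > lie at the tested range limits. Trimethoprim-sulfamethoxazole is given as the trimethoprim component of a 1:19 mixture.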

NC[C@@H]1O[C@H](O[C@H]2[C@@H](O)[C@H](O[C@@H]3[C@@H](O)[C@H](N)C[C@H](N)[C@H]3O[C@H]3O[C@H](CN)[C@@H](O)[C@H](O)[C@H]3N)O[C@@H]2CO)[C@H](N)[C@@H](O)[C@@H]1O [Neomycin]
Settings | minimum inhibitory concentration [µg/mL]
isolate (source animal id): 1 | ≤ 4
isolate (source animal id): 2 | ≤ 4
isolate (source animal id): 3 | ≤ 4
isolate (source animal id): 4 | ≤ 4
isolate (source animal id): 5 | ≤ 4
isolate (source animal id): 6 | ≤ 4
isolate (source animal id): 7 | ≤ 4
isolate (source animal id): 17 | > 32
isolate (source animal id): 18 | ≤ 4
isolate (source animal id): 19 | ≤ 4
isolate (source animal id): 20 | ≤ 4
isolate (source animal id): 21 | ≤ 4
isolate (source animal id): 22 | ≤ 4
isolate (source animal id): 23 | ≤ 4
isolate (source animal id): 24 | ≤ 4
isolate (source animal id): 25 | 32 (≈ 52.1 µM)
isolate (source animal id): 26 | ≤ 4
isolate (source animal id): 27 | > 32
isolate (source animal id): 28 | ≤ 4
isolate (source animal id): 29 | > 32
isolate (source animal id): 30 | ≤ 4
isolate (source animal id): 31 | ≤ 4
isolate (source animal id): 32 | > 32
isolate (source animal id): 33 | ≤ 4
isolate (source animal id): 34 | ≤ 4
isolate (source animal id): 35 | ≤ 4
isolate (source animal id): 36 | ≤ 4
isolate (source animal id): 37 | > 32
isolate (source animal id): 38 | ≤ 4
isolate (source animal id): 39 | ≤ 4
isolate (source animal id): 40 | ≤ 4
isolate (source animal id): 41 | ≤ 4
isolate (source animal id): 42 | ≤ 4
isolate (source animal id): 43 | > 32
isolate (source animal id): 44 | ≤ 4
isolate (source animal id): 45 | ≤ 4
isolate (source animal id): 46 | ≤ 4
isolate (source animal id): 47 | ≤ 4
isolate (source animal id): 48 | ≤ 4
isolate (source animal id): 49 | ≤ 4
isolate (source animal id): 50 | ≤ 4
isolate (source animal id): 51 | > 32
isolate (source animal id): 52 | ≤ 4
isolate (source animal id): 53 | > 32
isolate (source animal id): 54 | ≤ 4
isolate (source animal id): 55 | ≤ 4
isolate (source animal id): 56 | ≤ 4
isolate (source animal id): 57 | > 32
isolate (source animal id): 58 | ≤ 4
isolate (source animal id): 59 | ≤ 4
isolate (source animal id): 60 | ≤ 4
isolate (source animal id): 61 | ≤ 4
isolate (source animal id): 62 | ≤ 4
isolate (source animal id): 63 | ≤ 4
isolate (source animal id): 64 | ≤ 4
isolate (source animal id): 65 | > 32
isolate (source animal id): 66 | > 32
isolate (source animal id): 67 | ≤ 4
isolate (source animal id): 68 | 32 (≈ 52.1 µM)
isolate (source animal id): 69 | ≤ 4
isolate (source animal id): 70 | ≤ 4
isolate (source animal id): 71 | ≤ 4
isolate (source animal id): 72 | ≤ 4
isolate (source animal id): 73 | ≤ 4
isolate (source animal id): 74 | ≤ 4
isolate (source animal id): 75 | ≤ 4
isolate (source animal id): 76 | ≤ 4
isolate (source animal id): 77 | > 32
isolate (source animal id): 78 | ≤ 4
isolate (source animal id): 79 | ≤ 4
isolate (source animal id): 80 | ≤ 4
isolate (source animal id): 81 | ≤ 4
isolate (source animal id): 82 | ≤ 4
isolate (source animal id): 83 | ≤ 4
isolate (source animal id): 84 | ≤ 4
isolate (source animal id): 85 | ≤ 4
isolate (source animal id): 86 | 32 (≈ 52.1 µM)
isolate (source animal id): 87 | ≤ 4
isolate (source animal id): 88 | ≤ 4
isolate (source animal id): 89 | ≤ 4
isolate (source animal id): 90 | ≤ 4
isolate (source animal id): 91 | ≤ 4
isolate (source animal id): 92 | ≤ 4
isolate (source animal id): 93 | ≤ 4
isolate (source animal id): 94 | ≤ 4
isolate (source animal id): 95 | ≤ 4
isolate (source animal id): 96 | ≤ 4
isolate (source animal id): 97 | > 32
isolate (source animal id): 189 | ≤ 4
isolate (source animal id): 190 | > 32
isolate (source animal id): 191 | ≤ 4
isolate (source animal id): 192 | ≤ 4
isolate (source animal id): 193 | ≤ 4
isolate (source animal id): 194 | ≤ 4
isolate (source animal id): 195 | ≤ 4
isolate (source animal id): 196 | > 32
isolate (source animal id): 197 | ≤ 4
isolate (source animal id): 198 | ≤ 4
isolate (source animal id): 199 | ≤ 4
isolate (source animal id): 200 | ≤ 4
isolate (source animal id): 201 | ≤ 4
isolate (source animal id): 202 | ≤ 4
isolate (source animal id): 203 | ≤ 4
isolate (source animal id): 204 | ≤ 4
isolate (source animal id): 205 | > 32
isolate (source animal id): 206 | ≤ 4
isolate (source animal id): 207 | ≤ 4
isolate (source animal id): 208 | ≤ 4
isolate (source animal id): 209 | ≤ 4
isolate (source animal id): 210 | > 32
isolate (source animal id): 211 | ≤ 4
isolate (source animal id): 212 | ≤ 4
isolate (source animal id): 213 | > 32
isolate (source animal id): 214 | ≤ 4
isolate (source animal id): 215 | ≤ 4
isolate (source animal id): 216 | ≤ 4
isolate (source animal id): 217 | ≤ 4
isolate (source animal id): 218 | ≤ 4
isolate (source animal id): 219 | ≤ 4
isolate (source animal id): 220 | ≤ 4

Reference: the supplement of paper PMC8612539
